Data from paper doi:10.1101/2019.12.20.884783.
Like-named read-outs stand apart in the source and are kept apart here. No constants are given. Whether binding was seen depends on the method and setting. Binding seen in cells or lysates may run through a third protein. Some results given as binding are weak or reduced against the parent protein; the word gives no strength.

By UniProt entry, the sequences of proteins in these tests, tags left out.
UniProt Q5SQX6: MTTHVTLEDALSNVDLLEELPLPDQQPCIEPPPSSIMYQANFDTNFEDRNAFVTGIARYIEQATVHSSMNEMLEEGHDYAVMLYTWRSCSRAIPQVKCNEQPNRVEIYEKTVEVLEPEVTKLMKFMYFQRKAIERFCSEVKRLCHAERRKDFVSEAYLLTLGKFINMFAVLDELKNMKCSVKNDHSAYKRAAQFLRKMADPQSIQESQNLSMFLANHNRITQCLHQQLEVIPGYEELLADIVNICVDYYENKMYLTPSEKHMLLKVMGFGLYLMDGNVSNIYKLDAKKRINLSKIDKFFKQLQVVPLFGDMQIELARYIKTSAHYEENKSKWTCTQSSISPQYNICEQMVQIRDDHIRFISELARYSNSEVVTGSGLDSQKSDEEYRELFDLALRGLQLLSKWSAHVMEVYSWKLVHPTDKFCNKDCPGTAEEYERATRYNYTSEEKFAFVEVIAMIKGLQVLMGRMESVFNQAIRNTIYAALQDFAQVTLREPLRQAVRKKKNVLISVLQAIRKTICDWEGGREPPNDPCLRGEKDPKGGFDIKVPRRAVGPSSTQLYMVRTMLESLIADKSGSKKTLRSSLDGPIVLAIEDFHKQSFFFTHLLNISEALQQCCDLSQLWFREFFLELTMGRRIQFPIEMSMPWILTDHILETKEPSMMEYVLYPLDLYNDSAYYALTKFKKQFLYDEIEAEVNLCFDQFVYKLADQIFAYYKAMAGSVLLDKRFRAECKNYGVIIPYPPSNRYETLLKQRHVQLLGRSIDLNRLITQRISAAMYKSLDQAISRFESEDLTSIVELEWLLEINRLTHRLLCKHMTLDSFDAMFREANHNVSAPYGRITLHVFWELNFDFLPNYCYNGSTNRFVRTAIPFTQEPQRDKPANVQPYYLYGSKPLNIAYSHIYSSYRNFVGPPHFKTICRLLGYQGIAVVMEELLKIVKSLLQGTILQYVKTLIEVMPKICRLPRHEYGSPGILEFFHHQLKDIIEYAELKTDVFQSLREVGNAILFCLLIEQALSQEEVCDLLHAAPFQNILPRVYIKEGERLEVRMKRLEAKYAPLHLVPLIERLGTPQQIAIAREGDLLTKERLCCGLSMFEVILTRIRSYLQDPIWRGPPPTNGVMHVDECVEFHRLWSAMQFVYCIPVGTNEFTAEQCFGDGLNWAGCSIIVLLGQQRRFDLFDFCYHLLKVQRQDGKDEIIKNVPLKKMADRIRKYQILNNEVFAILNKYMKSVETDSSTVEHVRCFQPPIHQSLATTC
UniProt P63073: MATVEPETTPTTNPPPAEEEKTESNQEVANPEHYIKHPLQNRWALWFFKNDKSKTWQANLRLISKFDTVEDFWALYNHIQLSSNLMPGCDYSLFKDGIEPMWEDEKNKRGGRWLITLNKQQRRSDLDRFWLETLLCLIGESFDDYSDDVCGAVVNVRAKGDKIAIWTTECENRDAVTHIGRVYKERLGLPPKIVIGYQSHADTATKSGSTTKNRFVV

Columns and labels:
[1] = target: cytoplasmic FMRP-interacting protein 2 (CYFIP2), mouse (mouse (endogenous in hippocampus)) (UniProt Q5SQX6); assay: co-IP
[2] = target: cytoplasmic FMRP-interacting protein 2 (CYFIP2), mouse (mouse (endogenous in hippocampus)) (UniProt Q5SQX6); assay: co-IP; remark: listed apart in the source

For “eukaryotic initiation factor 4E (eIF4E), mouse (from UniProt P63073 1-217)”, the binding [1] was “binds” and the binding [2] was “binds”.
